Test results as given in US12329158B2, “Large-scale methods of uniformly coating packaging surfaces with a volatile antimicrobial to preserve food freshness” (AGROFRESH INC., priority 2013, dated 2025).
This continues a long series; more values of the same kind are listed elsewhere.

Legend:
Type in all cases: in vivo
Botrytis cinerea [1] = assay: In-clamshell Compound A applied by painting, spraying or sublimation; strawberries (Example 1); conditions: 5 mg/clamshell
Experimental: An in vivo assay was used to evaluate the ability of Compound A to volatilize from a clamshell chamber and control pathogenic infection when applied by various techniques. Multiple empty 1-lb PET clamshells (ProducePackaging.com, #036QT) were placed inside triplicate air-tight 36 L chamber (Fisher Scientific, Catalogue #08-642-23C) fitted with a bulkhead septum port (Swagelok, SS-401-61, Solon, OH).
Compound A headspace was permitted to equilibrate overnight at 21° C.
(§1) Five milligrams of Compound A was dissolved in 1 ml of ethanol prior to being uniformly administered to the interior of the clamshell by painting or spraying, and then dried for 5 minutes. After coating the clamshells with Compound A using various application techniques (i.e., sublimation, spraying, or painting), eight ethanol-washed strawberries were placed in the clamshell with stem end facing downwards. Each strawberry fruit was wounded using a T15 screwdriver tip to a uniform depth of eight mm (8 mm). […] Uninoculated strawberries were removed from their commercial package, and directly transferred into treated clamshells without any washing or inoculation steps.
(§2) Treated clamshells lids were closed, and then placed at 1° C. for an initial time period of 5 days. Clamshells were then removed from low temperature, and held for a second time period of 6 days at room temperature where the point of inoculation on the strawberry fruits was assessed for indication of disease incidence reported as a percentage (%). Severity of disease incidence was also reported.

Botrytis cinerea [2] = assay: Dose response, sprayed clamshells; strawberries (Example 4); conditions: Uninoculated Fruit, spraying
Experimental: as §1, §2
This in vivo assay was used to evaluate the ability of different concentrations of Compound A to volatilize from clamshell in order to control or inhibit fruit infection by pathogenic microorganism, Botrytis cinerea. This experiment was conducted exactly as described in Example 1, with a few exceptions. After equilibrating the clamshell overnight at 21° C., Compound A was administered to the clamshells by spraying only. Compound A was sprayed onto the surface of the clamshells at a final treatment rate of 5 mg/clamshell or 1 mg/clamshell. The clamshells were then permitted to dry for 5 minutes. Strawberries were inoculated with Botrytis cinerea, placed within the clamshells for the initial time period (i.e., 5 days), and assessed for disease incidence and severity over the second time period (i.e., 6 days) as described in Example 1.

Botrytis cinerea [3] = assay: Painting on base, lid or base and lid of clamshells; strawberries (Example 6)
Experimental: as §1, §2
This in vivo assay was used to evaluate the ability of Compound A to volatilize from different locations of a clamshell (i.e., the base and/or the lid of the clamshell) in order to control or inhibit fruit infection by pathogenic microorganism, Botrytis cinerea. This experiment was conducted exactly as described in Example 1, with a few exceptions. Compound A was administered to the clamshell by painting only. 5 mg of Compound A was painted onto the surface of the base of the clamshell or the lid of the clamshell (i.e., 5 mg/clamshell treatment rate). 2.5 mg of Compound A was painted onto the base and the lid of the clamshell (for a total of 5 mg/clamshell treatment rate). The clamshell was then permitted to dry for 5 minutes. Strawberries were inoculated with Botrytis cinerea, placed within the clamshell for an initial time period of 5 days, and assessed for disease incidence and severity over a second time period of 7 days as described in Example 1.

## OB1OCc2cc(F)ccc21 [Compound A, 5-fluoro-1,3-dihydro-1-hydroxy-2,1-benzoxaborole]
Botrytis cinerea [1]; Inoculated Fruit, Paint, Day 0
  Gray Mold Severity (0-4): 0.0
Botrytis cinerea [1]; Inoculated Fruit, Paint, Day 1
  Gray Mold Severity (0-4): 0.0
Botrytis cinerea [1]; Inoculated Fruit, Paint, Day 2
  Gray Mold Severity (0-4): 0.0
Botrytis cinerea [1]; Inoculated Fruit, Paint, Day 3
  Gray Mold Severity (0-4): 0.0
Botrytis cinerea [1]; Inoculated Fruit, Paint, Day 4
  Gray Mold Severity (0-4): 0.0
Botrytis cinerea [1]; Inoculated Fruit, Paint, Day 5
  Gray Mold Severity (0-4): 0.0
Botrytis cinerea [1]; Inoculated Fruit, Paint, Day 6
  Gray Mold Severity (0-4): 0.0
Botrytis cinerea [1]; Inoculated Fruit, Spray, Day 0
  Gray Mold Severity (0-4): 0.0
Botrytis cinerea [1]; Inoculated Fruit, Spray, Day 1
  Gray Mold Severity (0-4): 0.0
Botrytis cinerea [1]; Inoculated Fruit, Spray, Day 2
  Gray Mold Severity (0-4): 0.0
Botrytis cinerea [1]; Inoculated Fruit, Spray, Day 3
  Gray Mold Severity (0-4): 0.0
Botrytis cinerea [1]; Inoculated Fruit, Spray, Day 4
  Gray Mold Severity (0-4): 0.0
Botrytis cinerea [1]; Inoculated Fruit, Spray, Day 5
  Gray Mold Severity (0-4): 0.0
Botrytis cinerea [1]; Inoculated Fruit, Spray, Day 6
  Gray Mold Severity (0-4): 0.0
Botrytis cinerea [1]; Inoculated Fruit, Sublimation, Day 0
  Gray Mold Severity (0-4): 0.0
Botrytis cinerea [1]; Inoculated Fruit, Sublimation, Day 1
  Gray Mold Severity (0-4): 0.0
Botrytis cinerea [1]; Inoculated Fruit, Sublimation, Day 2
  Gray Mold Severity (0-4): 0.0
Botrytis cinerea [1]; Inoculated Fruit, Sublimation, Day 3
  Gray Mold Severity (0-4): 0.0
Botrytis cinerea [1]; Inoculated Fruit, Sublimation, Day 4
  Gray Mold Severity (0-4): 0.0
Botrytis cinerea [1]; Inoculated Fruit, Sublimation, Day 5
  Gray Mold Severity (0-4): 0.0
Botrytis cinerea [1]; Inoculated Fruit, Sublimation, Day 6
  Gray Mold Severity (0-4): 0.0
Botrytis cinerea [1]; Uninoculated Fruit, Paint, Day 0
  Gray Mold Severity (0-4): 0.0
Botrytis cinerea [1]; Uninoculated Fruit, Paint, Day 1
  Gray Mold Severity (0-4): 0.1
Botrytis cinerea [1]; Uninoculated Fruit, Paint, Day 2
  Gray Mold Severity (0-4): 0.5
Botrytis cinerea [1]; Uninoculated Fruit, Paint, Day 3
  Gray Mold Severity (0-4): 0.8
Botrytis cinerea [1]; Uninoculated Fruit, Paint, Day 4
  Gray Mold Severity (0-4): 0.9
Botrytis cinerea [1]; Uninoculated Fruit, Paint, Day 5
  Gray Mold Severity (0-4): 1.1
Botrytis cinerea [1]; Uninoculated Fruit, Paint, Day 6
  Gray Mold Severity (0-4): 1.1
Botrytis cinerea [1]; Uninoculated Fruit, Spray, Day 0
  Gray Mold Severity (0-4): 0.0
Botrytis cinerea [1]; Uninoculated Fruit, Spray, Day 1
  Gray Mold Severity (0-4): 0.2
Botrytis cinerea [1]; Uninoculated Fruit, Spray, Day 2
  Gray Mold Severity (0-4): 0.3
Botrytis cinerea [1]; Uninoculated Fruit, Spray, Day 3
  Gray Mold Severity (0-4): 0.5
Botrytis cinerea [1]; Uninoculated Fruit, Spray, Day 4
  Gray Mold Severity (0-4): 0.7
Botrytis cinerea [1]; Uninoculated Fruit, Spray, Day 5
  Gray Mold Severity (0-4): 1.2
Botrytis cinerea [1]; Uninoculated Fruit, Spray, Day 6
  Gray Mold Severity (0-4): 1.3
Botrytis cinerea [1]; Uninoculated Fruit, Sublimation, Day 0
  Gray Mold Severity (0-4): 0.0
Botrytis cinerea [1]; Uninoculated Fruit, Sublimation, Day 1
  Gray Mold Severity (0-4): 0.1
Botrytis cinerea [1]; Uninoculated Fruit, Sublimation, Day 2
  Gray Mold Severity (0-4): 0.3
Botrytis cinerea [1]; Uninoculated Fruit, Sublimation, Day 3
  Gray Mold Severity (0-4): 0.7
Botrytis cinerea [1]; Uninoculated Fruit, Sublimation, Day 4
  Gray Mold Severity (0-4): 0.9
Botrytis cinerea [1]; Uninoculated Fruit, Sublimation, Day 5
  Gray Mold Severity (0-4): 1.1
Botrytis cinerea [1]; Uninoculated Fruit, Sublimation, Day 6
  Gray Mold Severity (0-4): 1.3
Botrytis cinerea [2]; 1 mg/clamshell, Day 0
  Gray Mold Severity (0-4): 0.0
Botrytis cinerea [2]; 1 mg/clamshell, Day 1
  Gray Mold Severity (0-4): 0.5
Botrytis cinerea [2]; 1 mg/clamshell, Day 2
  Gray Mold Severity (0-4): 1.8
Botrytis cinerea [2]; 1 mg/clamshell, Day 3
  Gray Mold Severity (0-4): 3.6
Botrytis cinerea [2]; 1 mg/clamshell, Day 4
  Gray Mold Severity (0-4): 4.0
Botrytis cinerea [2]; 1 mg/clamshell, Day 5
  Gray Mold Severity (0-4): 4.0
Botrytis cinerea [2]; 1 mg/clamshell, Day 6
  Gray Mold Severity (0-4): 4.0
Botrytis cinerea [2]; 5 mg/clamshell, Day 3
  Gray Mold Severity (0-4): 0.5
Botrytis cinerea [2]; 5 mg/clamshell, Day 4
  Gray Mold Severity (0-4): 1.0
Botrytis cinerea [2]; 5 mg/clamshell, Day 5
  Gray Mold Severity (0-4): 1.4
Botrytis cinerea [3]; Inoculated Fruit, painted on Base, 5 mg, Day 0
  Gray Mold Incidence (%): 0.0%
Botrytis cinerea [3]; Inoculated Fruit, painted on Base, 5 mg, Day 1
  Gray Mold Incidence (%): 0.0%
Botrytis cinerea [3]; Inoculated Fruit, painted on Base, 5 mg, Day 2
  Gray Mold Incidence (%): 12.5%
Botrytis cinerea [3]; Inoculated Fruit, painted on Base, 5 mg, Day 3
  Gray Mold Incidence (%): 12.5%
Botrytis cinerea [3]; Inoculated Fruit, painted on Base, 5 mg, Day 4
  Gray Mold Incidence (%): 0.0%
Botrytis cinerea [3]; Inoculated Fruit, painted on Base, 5 mg, Day 5
  Gray Mold Incidence (%): 0.0%
Botrytis cinerea [3]; Inoculated Fruit, painted on Base, 5 mg, Day 6
  Gray Mold Incidence (%): 18.8%
Botrytis cinerea [3]; Inoculated Fruit, painted on Lid, 5 mg, Day 0
  Gray Mold Incidence (%): 0.0%
Botrytis cinerea [3]; Inoculated Fruit, painted on Lid, 5 mg, Day 1
  Gray Mold Incidence (%): 0.0%
Botrytis cinerea [3]; Inoculated Fruit, painted on Lid, 5 mg, Day 2
  Gray Mold Incidence (%): 0.0%
Botrytis cinerea [3]; Inoculated Fruit, painted on Lid, 5 mg, Day 3
  Gray Mold Incidence (%): 0.0%
Botrytis cinerea [3]; Inoculated Fruit, painted on Lid, 5 mg, Day 4
  Gray Mold Incidence (%): 0.0%
Botrytis cinerea [3]; Inoculated Fruit, painted on Lid, 5 mg, Day 5
  Gray Mold Incidence (%): 0.0%
Botrytis cinerea [3]; Inoculated Fruit, painted on Lid, 5 mg, Day 6
  Gray Mold Incidence (%): 0.0%
Botrytis cinerea [3]; Inoculated Fruit, painted on Lid, 5 mg, Day 7
  Gray Mold Incidence (%): 0.0%
Botrytis cinerea [3]; Uninoculated Fruit, painted on Base and Lid, 2.5/2.5 mg, Day 0
  Gray Mold Incidence (%): 0.0%
Botrytis cinerea [3]; Uninoculated Fruit, painted on Base and Lid, 2.5/2.5 mg, Day 1
  Gray Mold Incidence (%): 0.0%
Botrytis cinerea [3]; Uninoculated Fruit, painted on Base and Lid, 2.5/2.5 mg, Day 2
  Gray Mold Incidence (%): 0.0%
Botrytis cinerea [3]; Uninoculated Fruit, painted on Base and Lid, 2.5/2.5 mg, Day 3
  Gray Mold Incidence (%): 1.1%
Botrytis cinerea [3]; Uninoculated Fruit, painted on Base and Lid, 2.5/2.5 mg, Day 4
  Gray Mold Incidence (%): 7.8%
Botrytis cinerea [3]; Uninoculated Fruit, painted on Base and Lid, 2.5/2.5 mg, Day 5
  Gray Mold Incidence (%): 23.3%
Botrytis cinerea [3]; Uninoculated Fruit, painted on Base and Lid, 2.5/2.5 mg, Day 6
  Gray Mold Incidence (%): 33.3%
Botrytis cinerea [3]; Uninoculated Fruit, painted on Base and Lid, 2.5/2.5 mg, Day 7
  Gray Mold Incidence (%): 52.2%
Botrytis cinerea [3]; Uninoculated Fruit, painted on Base, 5 mg, Day 5
  Gray Mold Incidence (%): 10.0%
Botrytis cinerea [3]; Uninoculated Fruit, painted on Base, 5 mg, Day 6
  Gray Mold Incidence (%): 26.7%
Botrytis cinerea [3]; Uninoculated Fruit, painted on Base, 5 mg, Day 7
  Gray Mold Incidence (%): 41.1%
Botrytis cinerea [3]; Uninoculated Fruit, painted on Lid, 5 mg, Day 0
  Gray Mold Incidence (%): 0.0%
Botrytis cinerea [3]; Uninoculated Fruit, painted on Lid, 5 mg, Day 1
  Gray Mold Incidence (%): 0.0%
Botrytis cinerea [3]; Uninoculated Fruit, painted on Lid, 5 mg, Day 2
  Gray Mold Incidence (%): 0.0%
Botrytis cinerea [3]; Uninoculated Fruit, painted on Lid, 5 mg, Day 3
  Gray Mold Incidence (%): 1.1%
Botrytis cinerea [3]; Uninoculated Fruit, painted on Lid, 5 mg, Day 4
  Gray Mold Incidence (%): 18.9%
Botrytis cinerea [3]; Uninoculated Fruit, painted on Lid, 5 mg, Day 5
  Gray Mold Incidence (%): 27.8%
Botrytis cinerea [3]; Uninoculated Fruit, painted on Lid, 5 mg, Day 6
  Gray Mold Incidence (%): 45.6%
Botrytis cinerea [3]; Uninoculated Fruit, painted on Lid, 5 mg, Day 7
  Gray Mold Incidence (%): 64.4%
